Results as given in patent US20090075374A1, “METHODS OF GENERATING EPITHELIAL LINEAGE CELLS FROM EMBRYOID BODIES AND PLURIPOTENT CELLS” (priority 2007, published 2009).
For at least one compound, name, drawing or mass did not settle the structure.

How the values were obtained:
[1] = system: EBs formed from H1 and H9 hESC lines; test: RA-treated embryoid bodies: marker gene expression by PCR and immunostaining; type: cell-based, human
hESCs [2] = test: Direct differentiation of hESCs to K14-positive cells; type: cell-based, human
Procedure: For immunohistochemistry, cells were fixed in 4% paraformaldehyde for 15 minutes at room temperature before blocking and permeabilizing with 5% milk in PBS with 0.4% Triton X-100.

hESCs [3] = test: Direct differentiation of hESCs in N2 medium containing RA, BMP-4 or Noggin: epithelial and neuroectodermal transcripts; type: cell-based, human; conditions: six days
Procedure: For semi-quantitative and quantitative PCR, RNA was harvested from cells using a RNeasy® Mini kit (Qiagen; Valencia, Calif.). cDNA was then generated using Omniscript® RT (Qiagen), 1 μg RNA and oligo-dT primers. For semi-quantitative analysis, PCR was conducted using Platinum® Taq (Invitrogen) with 1 μl cDNA for 30 or 35 cycles. For quantitative analysis, PCR was conducted using Quantitect® SYBR Green qPCR kit (Qiagen) with 1 μl cDNA on an iCycler (BioRad; Hercules, Calif.). Relative expression levels were calculated using the ΔCT method, normalizing to GAPDH transcription. Primers (Table 1) were designed to span intron or bound exon borders, and PCR products were verified by melt curve analysis and/or 2% agarose gel electrophoresis.
BMP-4 synergized with RA in direct differentiation of hESCs to K14^+ cells. hESCs were directly differentiated in N2 medium containing RA, BMP-4 or Noggin (a BMP inhibitor). After differentiation for six days, RNA was analyzed for expression of epithelial and neuroectodermal transcripts. ΔNp63 was elevated in all RA-treated cell samples, regardless of status of BMP signaling.

[4] = system: EBs formed from H1 and H9 hESC lines; test: Culture of adherent RA-treated EBs in keratinocyte medium: K14+ cells by flow cytometry and immunocytochemistry

SMILES: CC1=C(/C=C/C(C)=C/C=C/C(C)=C/C(=O)O)C(C)(C)CCC1 [RA, tretinoin (all-trans RA)]
- mesoderm or endoderm markers (Brachyury and FoxA2) ([1]; RA-treated EBs): no mesoderm or endoderm markers (i.e., Brachyury and FoxA2) were detected
- p63 expression ([1]; RA-treated EBs): significantly upregulated
- transcription of Nestin, Pax6 and Sox1 ([1]; RA-treated EBs): attenuated or undetectable
- cells expressing p63 after plating ([1]; gelatin-coated plates, keratinocyte medium lacking RA, versus control cultures): virtually all cells previously treated with RA expressed p63
- Oct-4 expression ([1]; quantitative PCR, EBs in the presence of RA): pronounced decrease
- terminal differentiation markers (hESCs [2]; high-density and Ca2+ containing cultures of K14-positive cells): expressed terminal differentiation markers
- epithelial proteins p63 and K18 (hESCs [2]; six to seven days of culture in the presence of RA): detected
- neuroepithelial gene expression (Nestin, Pax6 and Sox1) (hESCs [3]): downregulated
- ΔNp63 transcript (hESCs [3]; regardless of status of BMP signaling): elevated
- undifferentiated Oct-4 expressing hESCs in colonies upon adhesion to gelatin ([4]; RA-treated EBs versus untreated EBs): formed monolayer colonies lacking undifferentiated (i.e., Oct-4 expressing) hESCs
- epithelial lineage induction ([4]; about 1 μM, nine days, then nineteen days on gelatin in DSFM): Significant epithelial lineage induction
- epithelial differentiation ([4]; exposure during adherent culture in DSFM): decreased or eliminated epithelial differentiation
- K14+ cells ([4]; exposure for four to eight days during EB induction, not after plating on gelatin): increased K14^+ cells
- percentage of K14+ cells ([4]; flow cytometry, up to twenty-five days after plating, versus untreated EBs): significantly greater than untreated EBs
- Nestin+ populations ([4]; higher concentrations (e.g., 10 μM)): decreased Nestin^+ populations
